One experiment concerns A549 cells. The experiment is described as follows: Cell viability. Format: cell-based. To be noted: Homo sapiens, A549, 72 h, read-out: Anti-proliferative activity IC50, A549.
A further experiment concerns MCF-7 cells. Kind of experiment: Cell viability. Format: cell-based. The note with it: Homo sapiens, MCF7, 72 h, read-out: Anti-proliferative activity IC50, MCF-7.

A word on the IC50: it is the concentration needed to halve the response being measured.

As for `O=C(CCCCCCC(=O)Nc1ccccc1)NO` [SAHA, suberoylanilide hydroxamic acid, reference compound], the IC50 with A549 cells came out at 5 ± 0.24 µM; in the experiment with MCF-7 cells it was 3.27 ± 0.05 µM.
